No constants are given. Whether binding was seen depends on the method and setting. In cells and extracts the contact can be indirect. Some binding calls cover weakened binding; strength is not graded here. Sequences can lack the tags named with a protein.
Molecular target: T1, Kaiso-Flag (human) (UniProt Q86T24)
T1 sequence: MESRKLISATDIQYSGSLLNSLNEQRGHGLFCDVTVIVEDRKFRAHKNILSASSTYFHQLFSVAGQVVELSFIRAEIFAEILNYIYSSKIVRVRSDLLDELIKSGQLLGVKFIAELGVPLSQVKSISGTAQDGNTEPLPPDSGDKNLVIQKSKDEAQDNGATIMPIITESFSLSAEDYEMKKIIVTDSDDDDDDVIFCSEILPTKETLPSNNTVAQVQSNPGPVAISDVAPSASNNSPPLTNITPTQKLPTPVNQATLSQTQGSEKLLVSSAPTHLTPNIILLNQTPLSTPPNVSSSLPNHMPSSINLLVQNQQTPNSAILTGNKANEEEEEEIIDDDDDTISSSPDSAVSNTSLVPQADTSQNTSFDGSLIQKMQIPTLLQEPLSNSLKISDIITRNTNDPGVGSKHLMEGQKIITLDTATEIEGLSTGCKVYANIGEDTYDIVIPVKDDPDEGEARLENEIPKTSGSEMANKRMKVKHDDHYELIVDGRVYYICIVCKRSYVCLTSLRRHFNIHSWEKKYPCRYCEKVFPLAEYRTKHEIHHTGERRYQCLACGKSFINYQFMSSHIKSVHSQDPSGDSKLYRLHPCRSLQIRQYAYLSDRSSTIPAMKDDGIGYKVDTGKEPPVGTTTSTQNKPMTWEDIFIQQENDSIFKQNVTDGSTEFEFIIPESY
Assay: co-IP

Chains of the proteins cited; added tags and fusions are not shown.
UniProt Q13547: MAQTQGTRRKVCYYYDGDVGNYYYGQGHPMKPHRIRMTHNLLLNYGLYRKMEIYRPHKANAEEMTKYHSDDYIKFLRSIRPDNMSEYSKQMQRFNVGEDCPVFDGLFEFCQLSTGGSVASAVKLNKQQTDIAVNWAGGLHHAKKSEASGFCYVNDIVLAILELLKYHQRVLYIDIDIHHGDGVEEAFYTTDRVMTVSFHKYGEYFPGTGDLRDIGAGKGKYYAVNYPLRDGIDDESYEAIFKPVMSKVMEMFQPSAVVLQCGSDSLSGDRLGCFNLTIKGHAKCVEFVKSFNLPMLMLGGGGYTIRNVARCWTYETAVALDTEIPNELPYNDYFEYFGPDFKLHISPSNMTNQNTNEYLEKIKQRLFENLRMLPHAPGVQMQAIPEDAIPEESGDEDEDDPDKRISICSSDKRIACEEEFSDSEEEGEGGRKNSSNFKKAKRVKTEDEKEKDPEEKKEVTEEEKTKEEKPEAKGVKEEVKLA

HDAC1-HA (from UniProt Q13547 1-482)
binding: binds
